# Laboratory results as given in the supplement of paper PMC10849652.
# Chains of the proteins cited; added tags and fusions are not shown. Lines headed by an entry give the natural chain unless they say otherwise; changes in a name come on top.
# UniProt P09543: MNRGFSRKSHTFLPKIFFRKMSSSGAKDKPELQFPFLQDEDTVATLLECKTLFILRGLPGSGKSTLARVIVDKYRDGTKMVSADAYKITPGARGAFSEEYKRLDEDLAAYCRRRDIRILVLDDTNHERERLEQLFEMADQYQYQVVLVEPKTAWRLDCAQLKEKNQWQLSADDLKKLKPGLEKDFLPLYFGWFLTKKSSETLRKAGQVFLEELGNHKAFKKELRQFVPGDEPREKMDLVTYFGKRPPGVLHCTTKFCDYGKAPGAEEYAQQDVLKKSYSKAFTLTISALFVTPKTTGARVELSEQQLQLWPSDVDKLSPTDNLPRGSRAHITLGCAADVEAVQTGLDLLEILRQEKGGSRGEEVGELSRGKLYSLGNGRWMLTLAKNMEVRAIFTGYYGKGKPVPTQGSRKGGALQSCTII
# UniProt P36551: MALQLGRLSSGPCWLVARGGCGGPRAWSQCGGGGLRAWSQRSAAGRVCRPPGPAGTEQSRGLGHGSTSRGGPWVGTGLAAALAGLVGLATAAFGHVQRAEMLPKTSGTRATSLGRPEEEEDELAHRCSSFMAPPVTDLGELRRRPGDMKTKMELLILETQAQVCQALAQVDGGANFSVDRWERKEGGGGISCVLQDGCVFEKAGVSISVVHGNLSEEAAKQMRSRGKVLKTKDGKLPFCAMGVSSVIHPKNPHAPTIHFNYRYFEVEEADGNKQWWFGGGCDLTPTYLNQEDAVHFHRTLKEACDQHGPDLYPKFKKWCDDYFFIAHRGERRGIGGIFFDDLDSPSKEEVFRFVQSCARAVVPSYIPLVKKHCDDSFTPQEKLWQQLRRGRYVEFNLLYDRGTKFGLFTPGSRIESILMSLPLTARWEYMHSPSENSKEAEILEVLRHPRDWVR
# UniProt Q9UBL6: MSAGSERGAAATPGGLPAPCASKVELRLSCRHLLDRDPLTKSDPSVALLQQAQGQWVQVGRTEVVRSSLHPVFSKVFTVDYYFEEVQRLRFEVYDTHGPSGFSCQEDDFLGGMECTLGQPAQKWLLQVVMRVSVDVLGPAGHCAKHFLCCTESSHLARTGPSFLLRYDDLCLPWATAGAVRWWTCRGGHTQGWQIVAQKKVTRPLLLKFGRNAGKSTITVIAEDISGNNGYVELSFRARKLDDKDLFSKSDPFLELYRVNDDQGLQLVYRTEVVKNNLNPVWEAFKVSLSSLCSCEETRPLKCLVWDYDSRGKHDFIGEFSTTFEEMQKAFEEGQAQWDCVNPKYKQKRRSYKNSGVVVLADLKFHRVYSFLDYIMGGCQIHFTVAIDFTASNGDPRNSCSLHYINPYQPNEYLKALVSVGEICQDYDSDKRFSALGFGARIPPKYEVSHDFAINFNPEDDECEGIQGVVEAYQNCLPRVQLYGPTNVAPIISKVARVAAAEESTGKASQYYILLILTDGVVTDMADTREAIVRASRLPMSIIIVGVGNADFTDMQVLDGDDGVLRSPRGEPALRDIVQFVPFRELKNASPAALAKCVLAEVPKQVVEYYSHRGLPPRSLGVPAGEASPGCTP
# UniProt Q96KP4: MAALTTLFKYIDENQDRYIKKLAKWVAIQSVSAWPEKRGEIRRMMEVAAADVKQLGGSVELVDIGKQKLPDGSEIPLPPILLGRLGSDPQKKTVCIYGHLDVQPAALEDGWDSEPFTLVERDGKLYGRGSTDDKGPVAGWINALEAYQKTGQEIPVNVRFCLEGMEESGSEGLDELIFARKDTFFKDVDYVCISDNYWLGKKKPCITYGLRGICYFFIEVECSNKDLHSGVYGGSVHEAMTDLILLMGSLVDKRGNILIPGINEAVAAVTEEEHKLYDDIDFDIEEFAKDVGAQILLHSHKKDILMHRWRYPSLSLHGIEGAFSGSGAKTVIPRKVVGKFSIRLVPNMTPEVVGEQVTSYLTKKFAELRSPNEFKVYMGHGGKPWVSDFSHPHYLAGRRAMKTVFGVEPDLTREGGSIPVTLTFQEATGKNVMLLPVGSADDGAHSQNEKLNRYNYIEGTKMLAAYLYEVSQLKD
# UniProt O75976: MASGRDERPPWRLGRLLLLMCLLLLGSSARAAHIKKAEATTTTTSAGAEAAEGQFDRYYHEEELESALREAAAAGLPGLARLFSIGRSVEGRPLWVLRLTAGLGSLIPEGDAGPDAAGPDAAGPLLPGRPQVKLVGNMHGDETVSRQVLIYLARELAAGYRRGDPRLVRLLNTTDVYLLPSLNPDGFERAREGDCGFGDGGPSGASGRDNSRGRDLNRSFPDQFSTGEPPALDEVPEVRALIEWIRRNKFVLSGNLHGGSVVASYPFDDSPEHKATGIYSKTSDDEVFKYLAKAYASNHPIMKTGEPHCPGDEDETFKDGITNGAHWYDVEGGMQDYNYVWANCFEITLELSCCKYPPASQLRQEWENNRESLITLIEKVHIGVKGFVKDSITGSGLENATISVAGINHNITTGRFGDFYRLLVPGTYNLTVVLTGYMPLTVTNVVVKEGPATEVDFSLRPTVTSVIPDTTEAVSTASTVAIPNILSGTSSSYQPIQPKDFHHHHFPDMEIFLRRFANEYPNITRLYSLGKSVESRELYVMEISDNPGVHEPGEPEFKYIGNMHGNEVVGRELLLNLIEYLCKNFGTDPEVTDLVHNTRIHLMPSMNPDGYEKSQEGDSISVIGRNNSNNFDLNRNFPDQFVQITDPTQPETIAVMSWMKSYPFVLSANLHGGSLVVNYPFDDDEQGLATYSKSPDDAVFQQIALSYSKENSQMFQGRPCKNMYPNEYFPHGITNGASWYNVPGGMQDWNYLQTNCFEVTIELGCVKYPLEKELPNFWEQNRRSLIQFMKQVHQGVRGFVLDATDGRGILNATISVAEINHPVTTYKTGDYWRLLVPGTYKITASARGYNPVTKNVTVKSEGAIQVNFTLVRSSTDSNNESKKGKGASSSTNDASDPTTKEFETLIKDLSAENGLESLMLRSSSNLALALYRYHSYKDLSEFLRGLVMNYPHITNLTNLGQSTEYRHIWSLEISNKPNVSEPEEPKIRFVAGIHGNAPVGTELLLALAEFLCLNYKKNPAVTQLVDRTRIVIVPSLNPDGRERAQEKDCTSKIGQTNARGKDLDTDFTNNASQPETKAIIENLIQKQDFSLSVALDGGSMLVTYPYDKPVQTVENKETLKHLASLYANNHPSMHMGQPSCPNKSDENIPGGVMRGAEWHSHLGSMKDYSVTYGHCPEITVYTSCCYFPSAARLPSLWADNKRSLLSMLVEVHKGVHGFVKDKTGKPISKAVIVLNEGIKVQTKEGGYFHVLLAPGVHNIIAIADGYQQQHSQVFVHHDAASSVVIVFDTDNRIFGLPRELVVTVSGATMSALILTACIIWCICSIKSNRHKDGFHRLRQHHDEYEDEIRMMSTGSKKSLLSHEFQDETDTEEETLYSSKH
# UniProt Q9Y2R0: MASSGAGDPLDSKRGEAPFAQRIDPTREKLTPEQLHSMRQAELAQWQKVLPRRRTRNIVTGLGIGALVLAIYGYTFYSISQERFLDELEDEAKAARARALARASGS
# UniProt Q7L5N1: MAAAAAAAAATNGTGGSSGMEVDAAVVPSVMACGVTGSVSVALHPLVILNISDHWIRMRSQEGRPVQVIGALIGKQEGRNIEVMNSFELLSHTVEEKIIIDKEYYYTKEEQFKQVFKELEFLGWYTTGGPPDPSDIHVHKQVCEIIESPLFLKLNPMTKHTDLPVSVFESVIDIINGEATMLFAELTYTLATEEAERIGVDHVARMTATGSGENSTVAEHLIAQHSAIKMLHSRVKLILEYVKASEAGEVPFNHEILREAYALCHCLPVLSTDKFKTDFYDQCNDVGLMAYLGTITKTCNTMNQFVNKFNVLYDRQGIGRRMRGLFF
# UniProt P78560: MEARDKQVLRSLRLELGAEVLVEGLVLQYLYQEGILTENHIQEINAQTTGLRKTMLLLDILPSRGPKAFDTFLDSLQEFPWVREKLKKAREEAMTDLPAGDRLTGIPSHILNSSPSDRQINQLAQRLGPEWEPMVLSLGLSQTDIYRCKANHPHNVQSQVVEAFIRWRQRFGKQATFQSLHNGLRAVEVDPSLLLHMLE
# Some of the results follow.
# Experiments:
# Test in all cases: log2 fold change, soluble protein after heating vs DMSO (PISA); higher = thermal stabilisation; K562 lysate, 10 uM; active = over 0.2 and 3.5 SD of the protein, either way, in both replicates (recomputed)
# [1] = compound: CN1CC[C@H](c2c(O)cc(O)c3c(=O)cc(-c4ccccc4Cl)oc23)[C@H](O)C1 [alvocidib]
# Procedure, shortened: (§1)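 A 30 min treatment with 10 μM compound was applied to crude K562 extract at 1 mg/mL protein in PBS pH 7.4 with 1 mM MgCl2. Heating for 3 min spanned 48°C-58°C, after which aliquots were pooled, adjusted to 0.5% NP-40 at 4°C and spun at 21,000xg for 90 min. TMTpro 16plex LC-MS/MS of the supernatant, with channel sums equalised, gave values recorded as log-two fold change in thermal stability against solvent controls, from duplicates.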
# [2] = compound: CN1CCc2c(c3ccccc3n2Cc2ccc(C(=O)NO)cc2)C1 [Tubastatin A]
# Procedure, shortened: as §1
# [3] = compound: CNC(=O)C1=CC=CC=C1NC2=NC(=NC=C2Cl)NC3=C(C=C(C=C3)N4CCOCC4)OC
# Procedure, shortened: as §1
# [4] = compound: CNC(=O)c1ccc(Nc2ncc(C(F)(F)F)c(NCc3nccnc3N(C)S(C)(=O)=O)n2)cc1 [defactinib]
# Procedure, shortened: as §1
# [5] = compound: CNc1nc(-c2ccc3c(N)n[nH]c3c2)cc(N2C[C@@H](C(=O)NC3CCCCC3)CC[C@H]2C)n1
# Procedure, shortened: as §1
# [6] = compound: COC(=O)N[C@@H](C)CNc1nccc(-c2cn(C(C)C)nc2-c2cc(Cl)cc(NS(C)(=O)=O)c2F)n1 [encorafenib]
# Procedure, shortened: as §1
# [7] = compound: COC(=O)[C@H](CCSC)NC(=O)C1=C(C=C(C=C1)NC[C@H](CS)N)C2=CC=CC=C2
# Procedure, shortened: as §1
# [8] = compound: COc1cc(Nc2ncc3c(n2)-c2ccc(Cl)cc2C(c2c(F)cccc2OC)=NC3)ccc1C(=O)O [alisertib]
# Procedure, shortened: as §1
# [9] = compound: COc1cc2nc(-c3cc(F)ccc3O)nc(N[C@@H]3CNC[C@H]3C(C)(C)O)c2cc1OC
# Procedure, shortened: as §1
# [10] = compound: COc1cc2ncnc(Nc3ccc(F)c(Cl)c3)c2cc1OCCCN1CCOCC1 [gefitinib]
# Procedure, shortened: as §1
# [11] = compound: CS(=O)(=O)CCNCc1ccc(-c2ccc3ncnc(Nc4ccc(OCc5cccc(F)c5)c(Cl)c4)c3c2)o1 [lapatinib]
# Procedure, shortened: as §1
# [12] = compound: CS(=O)(=O)N1CCN(Cc2cc3nc(-c4cccc5[nH]ncc45)nc(N4CCOCC4)c3s2)CC1 [pictilisib]
# Procedure, shortened: as §1
# [13] = compound: C[C@@H](Oc1cc(-c2cnn(C3CCNCC3)c2)cnc1N)c1c(Cl)ccc(F)c1Cl [crizotinib]
# Procedure, shortened: as §1
# [14] = compound: C[C@H](C1=CC=C(C=C1)C(=O)NC2=C3C=CNC3=NC=C2)N
# Procedure, shortened: as §1
# [15] = compound: C[C@H](Nc1ncnc2nc[nH]c12)c1cc2cccc(Cl)c2c(=O)n1-c1ccccc1 [duvelisib]
# Procedure, shortened: as §1
# [16] = compound: Cc1cc(Nc2cc(CN3CCOCC3)c3nc(C)c(Cc4ccc(Cl)cc4F)n3n2)n[nH]1 [gandotinib]
# Procedure, shortened: as §1
# [17] = compound: Cc1cc(Nc2cc(N3CCN(C)CC3)nc(Sc3ccc(NC(=O)C4CC4)cc3)n2)n[nH]1 [tozasertib]
# Procedure, shortened: as §1
# [18] = compound: Cc1ccc(-n2nc(C(C)(C)C)cc2NC(=O)Nc2ccc(OCCN3CCOCC3)c3ccccc23)cc1 [doramapimod]
# Procedure, shortened: as §1
# [19] = compound: Cc1ccc(NC(=O)c2ccc(CN3CC[C@H](N(C)C)C3)c(C(F)(F)F)c2)cc1Nc1nccc(-c2cncnc2)n1 [bafetinib]
# Procedure, shortened: as §1
# [20] = compound: Cc1cccc(CC(=O)N2CCc3c2ccc(-c2cn(C)c4ncnc(N)c24)c3F)n1
# Procedure, shortened: as §1
Target,log2 fold change [1],log2 fold change [2],log2 fold change [3],log2 fold change [4],log2 fold change [5],log2 fold change [6],log2 fold change [7],log2 fold change [8],log2 fold change [9],log2 fold change [10],log2 fold change [11],log2 fold change [12],log2 fold change [13],log2 fold change [14],log2 fold change [15],log2 fold change [16],log2 fold change [17],log2 fold change [18],log2 fold change [19],log2 fold change [20]
CNP (UniProt P09543),inactive: -0.005,inactive: -0.06,inactive: 0.011,inactive: 0.028,inactive: -0.03,inactive: 0.02,inactive: -0.003,inactive: 0.029,inactive: 0,inactive: -0.025,inactive: 0.014,inactive: 0.015,inactive: -0.023,inactive: 0.002,inactive: -0.002,inactive: -0.047,inactive: 0.012,inactive: 0.039,inactive: -0.026,inactive: 0.022
CPOX (UniProt P36551),inactive: -0.013,inactive: 0.015,inactive: 0.095,inactive: -0.036,inactive: 0.112,inactive: 0.002,inactive: -0.056,inactive: 0.018,inactive: 0,inactive: 0.029,inactive: -0.005,inactive: 0.016,inactive: 0.026,inactive: 0.021,inactive: 0.041,inactive: 0.065,inactive: -0.006,inactive: -0.009,inactive: 0.052,inactive: -0.04
CPNE7 (UniProt Q9UBL6),inactive: -0.019,inactive: -0.045,inactive: -0.006,inactive: -0.05,inactive: -0.043,inactive: 0.052,inactive: 0,inactive: 0.025,inactive: 0.005,inactive: 0.046,inactive: -0.077,inactive: -0.067,inactive: 0.017,inactive: -0.203,inactive: -0.026,inactive: 0.077,inactive: 0.103,inactive: -0.063,inactive: 0.015,inactive: 0.111
CNDP2 (UniProt Q96KP4),inactive: -0.11,inactive: 0.039,inactive: 0.003,inactive: 0.005,inactive: 0.1,inactive: -0.02,inactive: 0.002,inactive: -0.031,inactive: 0.047,inactive: 0.013,inactive: -0.021,inactive: -0.017,inactive: -0.008,active: -0.255,inactive: 0.037,active: 0.244,inactive: -0.062,inactive: 0.001,inactive: -0.002,inactive: 0.212
CPD (UniProt O75976),inactive: -0.068,inactive: 0.096,inactive: 0.027,inactive: 0.022,inactive: 0.13,inactive: -0.023,inactive: -0.016,inactive: 0.039,inactive: 0.008,inactive: -0.011,inactive: -0.03,inactive: -0.032,inactive: 0.01,inactive: -0.146,inactive: 0,inactive: 0.096,inactive: -0.023,inactive: -0.012,inactive: 0.018,inactive: 0.101
COA3 (UniProt Q9Y2R0),inactive: -0.058,inactive: 0.048,inactive: 0.035,inactive: 0.06,inactive: -0.09,inactive: 0.063,inactive: -0.108,inactive: 0,inactive: 0.002,inactive: -0.024,inactive: 0.044,inactive: -0.01,inactive: -0.014,inactive: -0.023,inactive: 0.039,inactive: 0.015,inactive: 0.047,inactive: 0.017,inactive: -0.062,inactive: 0.039
COPS6 (UniProt Q7L5N1),inactive: 0.007,inactive: -0.012,inactive: 0.006,inactive: 0.047,inactive: -0.066,inactive: 0.004,inactive: -0.032,inactive: 0.003,inactive: -0.062,inactive: 0.037,inactive: 0.009,inactive: -0.016,inactive: 0.005,inactive: 0.019,inactive: 0.031,inactive: -0.014,inactive: 0.049,inactive: -0.006,inactive: 0.088,inactive: -0.051
CRADD (UniProt P78560),inactive: 0.093,inactive: -0.094,inactive: -0.061,inactive: 0.096,inactive: 0.062,inactive: 0.042,inactive: 0.064,inactive: -0.039,inactive: -0.041,inactive: 0.022,inactive: 0.047,inactive: -0.031,inactive: 0,inactive: -0.004,inactive: 0.008,inactive: -0.009,inactive: 0.037,inactive: -0.057,inactive: -0.063,inactive: 0.164
